Patent US20200030452A1, “Process for the Manufacture of a Tumor-Vasculature Targeting Antitumor Agent” (priority 2016, published 2020)
Not every detail of the peptide structures is certain; ends, links or a residue may be inferred. Residues, ends and D or L forms follow the SMILES beside them. *: point of attachment. X1 = CCc1c2c(nc3ccc(OC(=O)[C@H]4CC[C@H](CNC(=O)[C@H]5CC[C@H](CN6C(=O)CC(*)C6=O)CC5)CC4)cc13)-c1cc3c(c(=O)n1C2)COC(=O)[C@]3(O)CC

Tests used:
[1] = tested on: human colon HCT116 tumors; assay: IF7-SN38 injected intravenously into nude mice carrying human colon HCT116 tumors; format: in vivo; conditions: intravenous, low dosages
[2] = tested on: tumors; assay: Treatment of mice with tumors using IF7-SN38; format: in vivo; conditions: mice with tumors treated with IF7-SN38
Excerpt: Therefore, using our targeted therapy, a small amount of IF7-SN38 is required to be injected to patients. The efficiency of IF7-SN38 is unprecedented in mice, in particular for the brain malignancies. […] It is believed that IF7-SN38 would work far better than PEGylated SN38 by targeting malignant tumors including brain malignancy. The low dosage, specificity, and easily degrading nature of IF7-SN38 in targeted cells to release SN38, are the major factors for the superiority of our drug to PEG-SN38.

With `CCc1c2c(nc3ccc(OC(=O)[C@H]4CC[C@H](CNC(=O)[C@H]5CC[C@H](CN6C(=O)CC(SC[C@H](NC(=O)[C@H](CCCNC(=N)N)NC(=O)[C@H](CCC(N)=O)NC(=O)[C@H](Cc7c[nH]c8ccccc78)NC(=O)[C@H](CC(C)C)NC(=O)[C@H](CC(C)C)NC(=O)[C@H](Cc7ccccc7)NC(=O)[C@@H](N)[C@@H](C)CC)C(=O)N[C@@H](CCCNC(=N)N)C(=O)N[C@@H](CCCNC(=N)N)C(=O)O)C6=O)CC5)CC4)cc13)-c1cc3c(c(=O)n1C2)COC(=O)[C@]3(O)CC` (some centres unmarked) [IF7-SN38] (H-IFLLWQRC(X1)RR-OH; N-terminus and C-terminus assumed) the tumor growth [1] was “efficiently suppressed tumor growth” and the tumors size [2] was “significant shrinkage in tumors size”.
